## Results of single-concentration screens

Chains of the proteins cited; added tags and fusions are not shown. Residues count along the entry.
UniProt I6X8D2, whole entry: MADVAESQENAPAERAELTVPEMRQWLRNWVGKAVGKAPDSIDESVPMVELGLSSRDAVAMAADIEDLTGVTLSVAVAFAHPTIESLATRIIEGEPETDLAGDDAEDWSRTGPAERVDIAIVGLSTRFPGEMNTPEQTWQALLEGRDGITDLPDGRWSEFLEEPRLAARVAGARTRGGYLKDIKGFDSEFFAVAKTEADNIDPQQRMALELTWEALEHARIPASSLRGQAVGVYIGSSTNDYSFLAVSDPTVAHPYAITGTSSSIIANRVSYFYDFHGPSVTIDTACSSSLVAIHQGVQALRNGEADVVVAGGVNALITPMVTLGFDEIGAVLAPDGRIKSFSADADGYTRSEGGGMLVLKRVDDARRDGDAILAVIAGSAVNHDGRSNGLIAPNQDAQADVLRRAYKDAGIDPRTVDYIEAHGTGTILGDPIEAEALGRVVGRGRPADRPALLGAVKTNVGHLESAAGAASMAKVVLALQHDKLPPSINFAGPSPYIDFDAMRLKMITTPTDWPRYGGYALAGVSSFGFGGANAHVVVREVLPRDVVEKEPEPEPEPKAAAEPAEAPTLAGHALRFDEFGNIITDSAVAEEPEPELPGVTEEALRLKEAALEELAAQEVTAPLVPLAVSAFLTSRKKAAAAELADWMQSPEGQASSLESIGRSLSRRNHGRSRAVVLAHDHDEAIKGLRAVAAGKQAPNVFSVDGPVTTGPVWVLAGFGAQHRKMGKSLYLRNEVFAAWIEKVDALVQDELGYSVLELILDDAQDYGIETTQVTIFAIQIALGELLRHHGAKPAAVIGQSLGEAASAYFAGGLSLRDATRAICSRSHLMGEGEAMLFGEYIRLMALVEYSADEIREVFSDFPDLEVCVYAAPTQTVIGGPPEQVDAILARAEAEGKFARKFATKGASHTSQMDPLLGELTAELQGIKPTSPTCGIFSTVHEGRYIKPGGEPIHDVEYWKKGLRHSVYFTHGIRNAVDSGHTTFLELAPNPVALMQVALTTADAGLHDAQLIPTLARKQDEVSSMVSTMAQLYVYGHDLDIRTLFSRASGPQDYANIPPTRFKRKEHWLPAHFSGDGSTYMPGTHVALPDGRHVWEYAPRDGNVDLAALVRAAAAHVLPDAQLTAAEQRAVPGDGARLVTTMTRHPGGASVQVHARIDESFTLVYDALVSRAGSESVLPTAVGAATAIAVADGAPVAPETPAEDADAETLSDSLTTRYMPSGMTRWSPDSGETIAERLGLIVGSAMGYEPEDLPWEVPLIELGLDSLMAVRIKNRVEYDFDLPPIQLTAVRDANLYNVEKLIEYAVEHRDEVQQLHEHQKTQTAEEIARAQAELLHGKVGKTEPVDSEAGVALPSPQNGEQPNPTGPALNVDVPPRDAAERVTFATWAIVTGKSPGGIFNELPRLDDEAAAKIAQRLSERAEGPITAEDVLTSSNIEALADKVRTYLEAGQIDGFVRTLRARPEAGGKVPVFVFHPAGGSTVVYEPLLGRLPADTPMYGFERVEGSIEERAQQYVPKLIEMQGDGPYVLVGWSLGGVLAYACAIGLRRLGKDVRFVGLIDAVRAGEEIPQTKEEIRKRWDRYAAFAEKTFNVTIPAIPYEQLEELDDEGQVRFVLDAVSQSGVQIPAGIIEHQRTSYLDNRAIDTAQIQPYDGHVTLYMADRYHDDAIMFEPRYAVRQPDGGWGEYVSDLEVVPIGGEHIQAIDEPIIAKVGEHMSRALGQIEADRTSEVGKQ
UniProt Q8IDJ8, 1-583: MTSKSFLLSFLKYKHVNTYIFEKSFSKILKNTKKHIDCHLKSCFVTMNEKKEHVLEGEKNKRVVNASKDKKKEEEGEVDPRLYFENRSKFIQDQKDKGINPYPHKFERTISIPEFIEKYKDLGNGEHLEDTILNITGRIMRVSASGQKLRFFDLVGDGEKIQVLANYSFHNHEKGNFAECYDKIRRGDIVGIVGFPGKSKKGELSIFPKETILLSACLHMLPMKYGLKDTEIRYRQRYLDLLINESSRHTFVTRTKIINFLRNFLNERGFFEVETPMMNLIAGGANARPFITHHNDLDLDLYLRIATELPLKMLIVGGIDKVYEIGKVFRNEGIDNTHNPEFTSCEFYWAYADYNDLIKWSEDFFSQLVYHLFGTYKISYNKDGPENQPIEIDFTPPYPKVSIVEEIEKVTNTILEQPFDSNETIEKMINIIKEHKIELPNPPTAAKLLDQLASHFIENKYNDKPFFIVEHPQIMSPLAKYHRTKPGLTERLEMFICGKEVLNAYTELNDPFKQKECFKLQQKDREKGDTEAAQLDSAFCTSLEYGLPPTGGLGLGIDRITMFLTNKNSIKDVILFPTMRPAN
UniProt P9WNZ1, whole entry: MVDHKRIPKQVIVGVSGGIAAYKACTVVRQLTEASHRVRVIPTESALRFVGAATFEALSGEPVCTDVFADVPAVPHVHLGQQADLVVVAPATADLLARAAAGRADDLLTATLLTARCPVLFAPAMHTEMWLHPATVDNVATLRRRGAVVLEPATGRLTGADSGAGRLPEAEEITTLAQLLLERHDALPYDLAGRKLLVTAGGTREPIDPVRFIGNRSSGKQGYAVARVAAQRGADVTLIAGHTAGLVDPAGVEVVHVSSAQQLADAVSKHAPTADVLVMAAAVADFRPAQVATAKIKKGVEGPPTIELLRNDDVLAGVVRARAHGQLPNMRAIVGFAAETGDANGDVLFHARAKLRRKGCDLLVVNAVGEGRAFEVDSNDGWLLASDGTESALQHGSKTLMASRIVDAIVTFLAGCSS

From ChEMBL document CHEMBL3988442, “University of Dundee, Small-Polar-MMV Screening Library” (2021).

Values are the deposited “Percent Effect”, in %.
How 0% and 100% were set is not recorded. Most values in the screen are low, and negative values occur.
The compounds are a random part of those screened.
A dash means the value is not listed here; it may have been measured.

Toxoplasma: 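Assay of Toxoplasma gondii numbers, read through their beta-galactosidase reporter with a colour substrate. Concentration: 10 µM. The record gives no direction; the compounds picked for IC50 retests had high values, so higher reads as fewer parasites. Size under these conditions: about 67,000 compounds, about 260 of them at 50% or above in at least one test.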
Pks13 thioesterase: 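Polyketide synthase Pks13, Mycobacterium tuberculosis (UniProt I6X8D2). Enzyme assay of the thioesterase domain of polyketide synthase 13; the read-out is not stated. Concentration: 30 µM. Higher reads as stronger inhibition (inferred from which compounds were picked for retests). Of about 67,000 compounds tested this way, about 300 (0.46%) reached 50% or more in at least one test.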
PfKRS1: 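Lysine-tRNA ligase, Plasmodium falciparum 3D7 (UniProt Q8IDJ8). Enzyme assay of the cytosolic lysyl-tRNA synthetase in 384-well plates, read by luminescence. Concentration: 30 µM. Higher reads as stronger inhibition, judged from the few compounds that gave an IC50. Size under these conditions: about 69,000 compounds, about 49 of them at 50% or above in at least one test.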
CoaBC: 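Coenzyme A biosynthesis protein CoaBC, Mycobacterium tuberculosis (UniProt P9WNZ1). Enzyme assay of CoaBC with a phosphate dye (Biomol Green) read at 650 nm. Tested at 30 µM. Higher reads as stronger inhibition, judged from the few compounds that gave an IC50. Most strong results did not repeat in a second test. Of about 67,000 compounds tested this way, about 40 (0.06%) reached 50% or more in at least one test.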

structure | Toxoplasma | Pks13 thioesterase | PfKRS1 | CoaBC
O=C(CCCn1cncn1)N1CCC2(CCCNC2=O)C1 (stereo unspecified) | -3.373 | -5.603 | 9.503 | -4.762
Cn1nc2c(cc1=O)CN(Cc1nnc(-c3ccc(F)cc3)o1)CC2 | 2.03 | 5.391 | 1.665 | 5.181
Cc1c(F)cccc1S(=O)(=O)N(C)CC(C)O (stereo unspecified) | 11.47 | 8.946 | 4.387 | -4.623
CSCc1cc(F)ccc1CNCc1cccnc1 | 6.5 | -2.622 | 1.838 | -2.184
Cc1nc(C2CCCCC2)sc1C(=O)O | -8.343 | -6.145 | 1.024 | -0.6046
COc1cccc(CNCc2cccnc2)c1 | 9.302 | - | -0.9153 | 12.59
Cc1c(C(C)NC2CCCC2)cnn1-c1ccc(F)cc1F (stereo unspecified) | 3.831 | 3.549 | 1.133 | -4.839
COc1ccccc1OCC(=O)NS(=O)(=O)c1ccccc1F | 0.577 | -9.782 | 0.2313 | 8.742
c1cncc(OCCNC2Cc3ccccc3C2)c1 | 7.203 | -12.25 | 4.751 | 5.645
CCCS(=O)(=O)c1ccc(N2CCN(Cc3ccccc3)CC2)nn1 | -2.317 | -8.889 | 8.409 | 3.594
O=C(c1cc(-c2cccs2)cs1)N1CCSCC1 | -31.67 | -9.081 | 4.075 | 2.296
CNS(=O)(=O)Cc1ccc(CNc2cncc(-n3cccn3)n2)cc1 | 6.353 | - | 4.95 | 1.928
CCCN(Cc1nccn1C)C(=O)c1cc(C)nc(C)n1 | -27.01 | -6.621 | 6.871 | 2.857
OC1CCN(c2ccc(CNc3nc4ccccc4s3)cc2F)CC1 | -4.054 | -6.435 | 5.535 | 2.444
Cn1cc(C2CCCN2C(=O)CCCc2nc3ccccc3[nH]2)cn1 (stereo unspecified) | 8.61 | -20.33 | -2.106 | 4.069
CC(C)C(C(=O)N1CCN(c2nccs2)CC1)n1cncn1 (stereo unspecified) | 2.585 | -19.52 | 1.173 | -1.276
O=C(c1cccnc1)N(Cc1ccncc1)C1CC1 | -1.348 | 0.5072 | 0.9882 | 1.09
O=C(c1cnccn1)N1CCCC(Cc2ccccn2)C1 (stereo unspecified) | 9.061 | -3.753 | -1.821 | -3.417
Cc1c2c(C(F)F)cc(SCC(=O)O)nc2nn1C | -2.415 | -97.75 | 3.016 | -6.994
N#Cc1c(C2CC2)cc(-c2ccc(F)c(F)c2)nc1N | -34.87 | - | 5.538 | 0.6289
O=C(O)C(F)(F)F.[H][C@@]12CCN(C3CCCC3)C[C@]1([H])OCCN(Cc1ccc(OC)cc1)C2=O | -4.906 | - | - | -
O=C(C(O)c1ccccc1Cl)N1CCCN(Cc2cccnc2)CC1 (stereo unspecified) | 2.085 | -23.95 | 16.12 | -30.45
COCCN(CC1CCCN(C2Cc3ccccc3C2)C1)C(=O)CO (stereo unspecified) | -5.464 | -25.82 | 8.102 | 3.666
O=C(N1CC(c2cccnc2)C1)C1(c2ccc(F)cc2)CCOCC1 | 2.615 | 11.06 | 1.123 | -0.1229
CN(Cc1ccncc1)C(=O)NCc1nnc2n1CCCCC2 | -49.45 | -24.39 | 0.2792 | 3.947
Cc1noc(C)c1CN1CCCC2(CCN(CC3CCCC3)C2)C1.O=C(O)C(F)(F)F (stereo unspecified) | -13.33 | - | - | -
O=C(NCCc1csc(-c2ncccn2)n1)c1cnn2c1CCCC2 | 5.035 | -41.09 | 5.99 | 2.408
Cc1cc(C)c2cc(CNC3CCCCC3)c3nn(C)c(=O)n3c2c1 | 4.151 | 10.19 | 2.944 | 4.116
N#Cc1ccccc1OCCN1CCCCC1Cn1cncn1 (stereo unspecified) | 6.491 | -8.115 | 1.18 | 6.287
CN1CCC(NC(=O)Nc2ccc(F)c(Br)c2)C1=O (stereo unspecified) | -10.07 | -20.22 | 1.255 | 4.348
Cn1c(SCc2noc(-c3ccsc3)n2)nnc1C1CCS(=O)(=O)C1 (stereo unspecified) | -1.357 | -16.29 | 3.659 | 0.3241
CN(C)S(=O)(=O)N1CC[C@]2(O)CCN(c3cc(C#N)ccn3)C[C@@H]2C1 | - | 6.584 | 6.721 | 7.975
CCC(NC(=O)CCCNC(=O)OC)c1cc(F)ccc1F (stereo unspecified) | -10 | -31.16 | 5.893 | 1.648
CC(=O)NCC1CCC2(CCN(c3nccc(C4CCCC4)n3)CC2)O1 (stereo unspecified) | -1.701 | -10.86 | 4.191 | 1.603
CCCn1ncc(CN2C[C@@H]3CCCN3C[C@H]2CCSC)c1C | - | 1.268 | 0.8899 | 1.859
CCc1ccc(NC(=O)c2n[nH]c(-n3cnnc3)n2)cc1 | 7.879 | -8.317 | 4.849 | -0.4619
CCn1ncc2c1CCCC2NCc1csc(COC)n1 (stereo unspecified) | -1.598 | -19.95 | -1.888 | -

3 of the entries, repeated:

structure	Toxoplasma	Pks13 thioesterase	PfKRS1	CoaBC
Cc1nc(C2CCCCC2)sc1C(=O)O	-8.343	-6.145	1.024	-0.6046
Cc1c(F)cccc1S(=O)(=O)N(C)CC(C)O (stereo unspecified)	11.47	8.946	4.387	-4.623
Cn1nc2c(cc1=O)CN(Cc1nnc(-c3ccc(F)cc3)o1)CC2	2.03	5.391	1.665	5.181